PubChem BioAssay AID1259308 | NCATS | 2017

Assay: 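Genes whose loss raises luciferase production in HEK293 cells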 (primary screen)
Cell system: human HEK293 embryonic kidney cells stably expressing firefly luciferase (HEK-CMV-Luc2-Hygro)
Knock-down reagent: single siRNA against human genes, 0.8 pmol siRNA per well
Duration: 72 h
Detection: 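Reporter luminescence and viable-cell signal on separate replicate plates, given as percent of non-targeting control and median/MAD z-scores, plus per-cell luciferase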
Scale: total luciferase, z-score and total luciferase, % of control: higher = more reporter protein produced; luciferase per cell, z-score: higher = more reporter output per viable cell; viable cells, % of control: higher = more viable cells
Active means: 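Active when the median/MAD z-score for overall luciferase is greater than 3; a gene was taken forward for validation with new siRNAs if at least two of its three siRNAs passed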
Meaning of the calls: active = raised luciferase; inactive = no rise
Here is a random part of about 59,000 deposited reagents. About 1,510 of them (2.6%) were called active. 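Calls use total luciferase alone and ignore viability, so some active siRNAs may act by altering cell number.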 The numbers tell different reagents against one gene apart.

target | reagent | total luciferase, z-score | total luciferase, % of control | luciferase per cell, z-score | viable cells, % of control | Call
ETNK1 (ethanolamine kinase 1) | 1 | 0.483 | 91.5 | -0.00492 | 102 | inactive
ETNK1 (ethanolamine kinase 1) | 2 | 0.618 | 94.2 | -0.0319 | 106 | inactive
ETNK1 (ethanolamine kinase 1) | 3 | 0.532 | 92.5 | 0.325 | 94.8 | inactive
RASD1 (ras related dexamethasone induced 1) | 1 | -0.344 | 75 | -0.91 | 107 | inactive
RASD1 (ras related dexamethasone induced 1) | 2 | -0.7 | 68 | -1.39 | 109 | inactive
RASD1 (ras related dexamethasone induced 1) | 3 | 0.129 | 84.4 | 0.519 | 82.3 | inactive
DMAP1 (DNA methyltransferase 1 associated protein 1) | 1 | 1.53 | 112 | 1.5 | 84.5 | inactive
DMAP1 (DNA methyltransferase 1 associated protein 1) | 2 | 1.82 | 118 | 2.32 | 71.7 | inactive
DMAP1 (DNA methyltransferase 1 associated protein 1) | 3 | 2.29 | 128 | 1.46 | 97.1 | inactive
GPR132 (G protein-coupled receptor 132) | 1 | 0.159 | 85 | -0.231 | 101 | inactive
GPR132 (G protein-coupled receptor 132) | 2 | -0.591 | 70.1 | -0.444 | 88.1 | inactive
GPR132 (G protein-coupled receptor 132) | 3 | -0.0394 | 81.1 | -0.087 | 92.7 | inactive
HSCB (HscB mitochondrial iron-sulfur cluster cochaperone) | 1 | -1.62 | 49.7 | -1.11 | 74.4 | inactive
HSCB (HscB mitochondrial iron-sulfur cluster cochaperone) | 2 | -1.59 | 50.4 | -0.709 | 67.8 | inactive
HSCB (HscB mitochondrial iron-sulfur cluster cochaperone) | 3 | -0.236 | 77.2 | -0.627 | 102 | inactive

Records above whose target name begins with D or d (3):
target | reagent | total luciferase, z-score | total luciferase, % of control | luciferase per cell, z-score | viable cells, % of control | Call
DMAP1 (DNA methyltransferase 1 associated protein 1) | 1 | 1.53 | 112 | 1.5 | 84.5 | inactive
DMAP1 (DNA methyltransferase 1 associated protein 1) | 2 | 1.82 | 118 | 2.32 | 71.7 | inactive
DMAP1 (DNA methyltransferase 1 associated protein 1) | 3 | 2.29 | 128 | 1.46 | 97.1 | inactive

The list goes on.
target | reagent | total luciferase, z-score | total luciferase, % of control | luciferase per cell, z-score | viable cells, % of control | Call
ADISSP (adipose secreted signaling protein) | 1 | -0.677 | 68.4 | -0.665 | 91.1 | inactive
ADISSP (adipose secreted signaling protein) | 2 | 0.729 | 96.4 | 0.528 | 93.7 | inactive
ADISSP (adipose secreted signaling protein) | 3 | -0.042 | 81.1 | 0.136 | 87.4 | inactive
C8orf74 (chromosome 8 open reading frame 74) | 1 | 0.0381 | 82.6 | -0.306 | 100 | inactive
C8orf74 (chromosome 8 open reading frame 74) | 2 | -0.509 | 71.8 | -0.231 | 85.2 | inactive
C8orf74 (chromosome 8 open reading frame 74) | 3 | 1.75 | 117 | 1.75 | 82.1 | inactive
PROK2 (prokineticin 2) | 1 | 0.225 | 86.4 | 0.4 | 86.8 | inactive
PROK2 (prokineticin 2) | 2 | -0.451 | 72.9 | 0.681 | 68.1 | inactive
PROK2 (prokineticin 2) | 3 | 1.83 | 118 | 2.16 | 74.9 | inactive
